# Data from PubChem BioAssay AID1259415 (National Center for Advancing Translational Sciences (NCATS), 2018).
# Hit rate of the full screen: of about 410,000 compounds, about 18,000 (4.4%) were called active. Inconclusive results, whose numbers are uncertain, are shown with a selection of clear calls. Rule as the data show it: active = activity change below about -60%; inconclusive = no clear call, values can overlap the other calls; inactive = above about -39%.
# Assay: qHTS Assay for inhibitors of the human cytomegalovirus (HCMV)
# Conditions: HFF cells, HCMV-luciferase reporter, 72 h; at 57.5 µM; active compounds read low
# Procedure, shortened: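 Two compound doses tested in HFFs infected with HCMV-luciferase, MOI 1 PFU/cell, 72 h at 37C. Lysate luminescence read with OneGlo; data normalized against buffer-only and 10uM Salinomycin inhibitor controls.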
# % is scaled to controls: 0 for no effect and ±100 for the full control effect.
row,SMILES,"activity change, negative = inhibition"
1,CN(C)CCOCCOc1ccc(Cl)cc1C(C)(C)C,inconclusive: -50.7%
2,CC1(C)C2CCC1(C(=O)O)c1nc3ccccc3nc12 (stereo not drawn),inconclusive: -49.3%
3,CCC1=NN(C(=O)c2cccc(Br)c2)C(O)(c2ccc(Br)cc2)C1 (stereo not drawn),active: -71.4%
4,CN(C)c1ccc(NC(=O)CSc2nc(-c3ccco3)cc(C(F)(F)F)n2)cc1,inactive: 13.1%
5,CCN1/C(=C\C(=S)Nc2ccccc2)Sc2ccccc21,active: -60.9%
6,N#Cc1cc2c(nc1SCC(=O)Nc1ccc(OC(F)(F)F)cc1)C1CCN2CC1,active: -71.9%
7,COc1ccc(Cl)cc1NC(=O)Cn1ncc2c3ccccc3n(Cc3ccccc3)c2c1=O,active: -67.9%
8,c1cncc(Nc2nc(-c3cccs3)cs2)c1,inactive: 157%
9,CCc1nc(SCC(=O)Nc2cccc3ccccc23)[nH]c(=O)c1C,inactive: -6.94%
10,Cc1ccc2ncc(S(=O)(=O)c3ccccc3)c(N3CCCCC3C)c2c1 (stereo not drawn),inconclusive: -57.1%
11,Nc1nc(CCl)nc(Nc2ccccc2)n1,active: -91.2%
12,Cc1ccc(S(=O)(=O)N2CCOCC2)cc1NC(=O)COC(=O)CSc1ccc(Br)cc1C,active: -96%
13,CS/C(N)=N/S(=O)(=O)c1ccc(NC(C)=O)cc1,inactive: 23.5%
14,Cn1cc([C@]2(O)C(=O)Nc3ccc(F)cc32)c2ccccc21,inconclusive: -50.2%
15,O=C(O)CSc1nnc(NC(=O)c2ccc3c(c2)OCO3)s1,inactive: -6.11%
16,CC1CCCN(C(=O)CCc2ccccc2)C1 (stereo not drawn),inconclusive: -49.9%
17,Nc1ncnc2c1ncn2[C@@H]1O[C@H](CNCc2c(OCc3ccccc3F)ccc3ccccc23)[C@@H](O)[C@H]1O,inconclusive: -43.2%
18,Cc1c(NC(=O)CSc2ccc(Cl)cc2)cccc1-c1nc2ncccc2o1,inconclusive: -56.5%
19,CCCCNc1ncnc2c1cnn2-c1ccccc1,inactive: 104%
20,Cc1nc2ncccn2c1-c1csc(Nc2ccc(N(C)C)cc2)n1,active: -64.6%

# Looked up above.
# Entry for Cc1c(NC(=O)CSc2ccc(Cl)cc2)cccc1-c1nc2ncccc2o1 under activity change, negative = inhibition: inconclusive: -56.5%
# Entry for Nc1nc(CCl)nc(Nc2ccccc2)n1 under activity change, negative = inhibition: active: -91.2%

# Following part:

row,SMILES,"activity change, negative = inhibition"
1,COc1ccc(-n2nnnc2C2CCN(S(=O)(=O)c3ccc(F)cc3Cl)CC2)cc1,inconclusive: -46.6%
2,O=C(CSc1nnc(-c2cccs2)o1)OCc1ccccc1,inconclusive: -41.9%
3,CC(=O)N1N=C(N)SC1c1cccc([N+](=O)[O-])c1 (stereo not drawn),inconclusive: -52.5%
4,OCC1(CO)COC(/C=C/c2ccccc2)=N1,inconclusive: -48%
5,Cc1noc(C)c1CSCC(=O)N1CCN(c2ccc([N+](=O)[O-])cc2)CC1,inconclusive: -47.7%
6,O=C(CCc1ccccc1)NNC(=O)c1ccc(Br)cc1,inconclusive: -41.4%
7,COc1ccc(CCNC(=O)CSc2nc(-c3ccco3)cc(C(F)(F)F)n2)cc1,inconclusive: -40.7%
8,COc1cc(NC(=O)Cn2c(=O)n(CC(=O)NCCc3ccc(OC)c(OC)c3)c(=O)c3sccc32)cc(OC)c1,inconclusive: -44.2%
9,COc1cc2c3nnc(-c4ccccc4)c-3cn(Cc3ccccc3F)c2cc1OC,active: -97.3%
10,Fc1ccc(Nc2nc(N/N=C/c3ccco3)nc(N3CCCCC3)n2)cc1,inconclusive: -40.7%
11,CCOC(=O)N1CCN(C(=O)/C=C/c2c(C)nn(-c3ccc(F)cc3)c2Cl)CC1,inconclusive: -42.7%
12,CC(=O)Nc1ccc(-c2ccnc3c2CC(C)(C(=O)Nc2cccc(OC(F)(F)F)c2)O3)cc1 (stereo not drawn),inconclusive: -48.6%
13,O=C(Nc1cccc(Cl)c1)Nc1cc(S(=O)(=O)N2CCCCC2)ccc1Cl,active: -98.6%
14,CC(C)(C)OC(=O)N(Cc1ccccc1)Cc1ccccc1OCc1cccc(NC(=O)C2CC2)c1,inconclusive: -41.4%
15,O=C(c1ccco1)N1CCN(S(=O)(=O)c2ccc(Oc3ccccc3)cc2)CC1,inconclusive: -51.9%
16,CSc1nnc2c(n1)[nH]c1c(C)cccc12,inactive: 9.97%
17,CC(C)Cc1nc(N2CCN(C(=O)c3ccco3)CC2)c(C#N)c2c1CCCC2,inactive: 0%
18,COc1ccc(Nc2nc(-c3cccc(OC)c3O)nc3ccccc23)cc1,inconclusive: -46.4%
19,CCOC(=O)c1ccc(NC(=S)NN)cc1,inactive: -34.7%
20,O=C1CC(C(F)(F)C(F)(F)C(F)(F)C(F)F)=Nc2ccccc2N1,inconclusive: -45%

row,SMILES,"activity change, negative = inhibition"
1,NS(=O)(=O)c1ccc(N2CCCCCC2)c([N+](=O)[O-])c1,inconclusive: -44.7%
2,COc1cccc(N=Nc2ccc3cccnc3c2O)c1,active: -99.6%
3,O/N=C/c1cccnc1Sc1ccccc1,inconclusive: -53.1%
4,CCN1CCN(C(=O)Cc2ccc(C)cc2)CC1,inactive: 71.6%
5,CCCN(CC(=O)Nc1ccccc1C)C(=O)CC(NC(=O)c1ccccc1)c1ccccc1 (stereo not drawn),inactive: -13.9%
6,CCC(C)(C)C1CCC(=NNc2nc3ccccc3[nH]2)CC1 (stereo not drawn),inconclusive: -42.1%
7,CC(=O)/C=C1\N(C)c2ccc(C)cc2C1(C)C,inconclusive: -56.2%
8,CCCCC[C@H]1CN(CCCC)C(=O)[C@@H]1CC(=O)NCc1ccccc1,inconclusive: -49.4%
9,O=C(CCCc1nc2ccccc2s1)Nc1ccc(N2CCOCC2)cc1,inconclusive: -43.5%
10,COc1ccc2c(CCNC(=O)Nc3ccccc3)c[nH]c2c1,inconclusive: -52.3%
11,CC(C)CCCCCCNC(=S)Nc1ccc(S(=O)(=O)N2CCOCC2)cc1,active: -84.9%
12,CC(C(=O)Nc1ccccc1Br)N1c2cccc3cccc(c23)S1(=O)=O (stereo not drawn),inconclusive: -50.7%
13,N#C/C(=C\C=C\c1ccccc1)C(=O)N1CCCC1,inconclusive: -54.6%
14,C=CCN(C(=O)c1oc2c(Cl)cc(C)cc2c1C)C1CCS(=O)(=O)C1 (stereo not drawn),inactive: 63.8%
15,CCc1cccc(CC)c1N(COC)C(=O)Cn1cnc2ccccc21,inconclusive: -48.5%
16,O=C1NCCN(Cc2ccc(Cl)c(F)c2)C1CC(=O)N1CCCCO1 (stereo not drawn),inactive: 91.6%
17,COC(=O)C1=C(CN2CCCc3ccccc32)NC(=O)NC1c1ccc(F)cc1 (stereo not drawn),active: -80.8%
18,CN(CC(=O)OCC(=O)NCC(F)(F)F)S(=O)(=O)c1ccc(Cl)cc1,inconclusive: -46.1%
